These are yes or no findings as the source states them, for the method shown. In cells and extracts the contact can be indirect. Here binding means that the protein was enriched with, or labelled near, the bait; the list need not be complete.

By UniProt entry, the sequences of proteins in these tests, tags left out.
UniProt Q8TCU6: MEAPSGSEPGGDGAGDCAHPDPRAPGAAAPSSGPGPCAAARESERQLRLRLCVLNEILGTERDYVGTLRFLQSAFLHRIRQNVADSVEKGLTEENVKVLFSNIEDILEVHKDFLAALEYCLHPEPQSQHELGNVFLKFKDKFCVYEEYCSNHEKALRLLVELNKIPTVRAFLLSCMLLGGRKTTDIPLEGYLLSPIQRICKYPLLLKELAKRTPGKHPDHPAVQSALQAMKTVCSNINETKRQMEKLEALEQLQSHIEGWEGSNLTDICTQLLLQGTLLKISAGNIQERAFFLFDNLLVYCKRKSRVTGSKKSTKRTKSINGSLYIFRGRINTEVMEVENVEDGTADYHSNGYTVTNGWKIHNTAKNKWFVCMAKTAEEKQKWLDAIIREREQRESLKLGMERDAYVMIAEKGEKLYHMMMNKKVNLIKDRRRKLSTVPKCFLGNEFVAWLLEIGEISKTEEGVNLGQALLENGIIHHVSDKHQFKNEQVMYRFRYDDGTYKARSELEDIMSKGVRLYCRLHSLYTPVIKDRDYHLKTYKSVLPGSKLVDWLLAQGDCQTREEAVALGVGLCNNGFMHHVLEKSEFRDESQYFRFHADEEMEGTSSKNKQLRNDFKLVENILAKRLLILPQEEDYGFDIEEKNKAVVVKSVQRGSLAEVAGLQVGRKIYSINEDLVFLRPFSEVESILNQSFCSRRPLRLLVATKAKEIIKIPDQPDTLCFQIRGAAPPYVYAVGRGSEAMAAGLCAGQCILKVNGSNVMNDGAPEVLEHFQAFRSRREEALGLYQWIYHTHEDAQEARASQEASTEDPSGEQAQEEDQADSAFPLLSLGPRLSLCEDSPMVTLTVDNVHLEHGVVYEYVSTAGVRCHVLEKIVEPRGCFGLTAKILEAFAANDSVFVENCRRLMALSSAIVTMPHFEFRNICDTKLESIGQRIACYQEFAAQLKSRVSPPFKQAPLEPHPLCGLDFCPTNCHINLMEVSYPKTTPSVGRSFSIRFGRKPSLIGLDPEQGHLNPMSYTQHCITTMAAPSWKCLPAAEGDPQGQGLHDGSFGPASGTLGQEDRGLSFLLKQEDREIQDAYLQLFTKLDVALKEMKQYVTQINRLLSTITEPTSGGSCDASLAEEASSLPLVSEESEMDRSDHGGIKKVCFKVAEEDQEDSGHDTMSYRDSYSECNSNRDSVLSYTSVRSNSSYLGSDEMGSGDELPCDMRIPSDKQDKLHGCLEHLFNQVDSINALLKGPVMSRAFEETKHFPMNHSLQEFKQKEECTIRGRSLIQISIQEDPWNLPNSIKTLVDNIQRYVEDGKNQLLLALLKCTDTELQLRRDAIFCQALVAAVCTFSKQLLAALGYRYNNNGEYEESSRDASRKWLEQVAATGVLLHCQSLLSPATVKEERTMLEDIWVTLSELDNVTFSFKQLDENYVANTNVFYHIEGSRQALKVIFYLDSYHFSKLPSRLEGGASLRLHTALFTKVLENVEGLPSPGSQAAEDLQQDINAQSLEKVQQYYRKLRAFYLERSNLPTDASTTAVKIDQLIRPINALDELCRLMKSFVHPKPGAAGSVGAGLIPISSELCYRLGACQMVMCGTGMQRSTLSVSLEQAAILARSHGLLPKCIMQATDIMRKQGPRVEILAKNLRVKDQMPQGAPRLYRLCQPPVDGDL
UniProt O08599: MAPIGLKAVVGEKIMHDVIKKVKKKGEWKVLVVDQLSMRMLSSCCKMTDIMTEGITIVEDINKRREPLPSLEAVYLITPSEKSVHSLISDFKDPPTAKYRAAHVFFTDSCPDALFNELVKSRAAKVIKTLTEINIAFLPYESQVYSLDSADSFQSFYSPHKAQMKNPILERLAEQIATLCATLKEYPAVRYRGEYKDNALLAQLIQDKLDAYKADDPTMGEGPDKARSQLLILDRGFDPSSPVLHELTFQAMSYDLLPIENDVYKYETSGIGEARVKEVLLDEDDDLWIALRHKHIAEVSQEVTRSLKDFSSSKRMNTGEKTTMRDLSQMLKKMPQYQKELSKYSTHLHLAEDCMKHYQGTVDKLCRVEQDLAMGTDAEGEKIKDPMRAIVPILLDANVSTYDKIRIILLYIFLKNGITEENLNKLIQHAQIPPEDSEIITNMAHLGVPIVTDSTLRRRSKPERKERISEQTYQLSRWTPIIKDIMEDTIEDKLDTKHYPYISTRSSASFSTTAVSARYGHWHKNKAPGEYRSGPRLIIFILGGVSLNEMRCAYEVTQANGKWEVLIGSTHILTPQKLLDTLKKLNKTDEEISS
UniProt Q922D8: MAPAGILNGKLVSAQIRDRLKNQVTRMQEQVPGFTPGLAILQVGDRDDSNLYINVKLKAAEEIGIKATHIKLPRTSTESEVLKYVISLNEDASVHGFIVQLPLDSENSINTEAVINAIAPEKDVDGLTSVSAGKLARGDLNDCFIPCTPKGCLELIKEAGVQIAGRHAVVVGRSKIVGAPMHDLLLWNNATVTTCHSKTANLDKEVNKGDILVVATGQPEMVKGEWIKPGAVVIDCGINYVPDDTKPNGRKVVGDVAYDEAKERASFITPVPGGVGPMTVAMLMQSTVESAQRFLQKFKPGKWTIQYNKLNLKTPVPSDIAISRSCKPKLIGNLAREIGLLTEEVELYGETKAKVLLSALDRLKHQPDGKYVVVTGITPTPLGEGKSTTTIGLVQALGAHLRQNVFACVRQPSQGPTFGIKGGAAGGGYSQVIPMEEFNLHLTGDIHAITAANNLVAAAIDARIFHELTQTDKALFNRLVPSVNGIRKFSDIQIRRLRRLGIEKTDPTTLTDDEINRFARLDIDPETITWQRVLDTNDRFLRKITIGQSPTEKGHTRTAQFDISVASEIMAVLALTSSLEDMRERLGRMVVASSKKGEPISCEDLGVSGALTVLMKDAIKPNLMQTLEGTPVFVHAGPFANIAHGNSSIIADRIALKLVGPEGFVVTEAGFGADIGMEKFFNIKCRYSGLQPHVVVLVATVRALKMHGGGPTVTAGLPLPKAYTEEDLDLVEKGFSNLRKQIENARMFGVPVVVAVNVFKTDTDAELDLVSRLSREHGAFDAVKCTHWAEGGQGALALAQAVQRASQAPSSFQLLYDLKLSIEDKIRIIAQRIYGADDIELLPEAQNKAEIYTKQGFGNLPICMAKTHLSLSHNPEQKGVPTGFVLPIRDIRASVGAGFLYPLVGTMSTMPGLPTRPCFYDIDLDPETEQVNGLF

This experiment has as its target purified recombinant human full-length EE-P-Rex1 protein (human) (UniProt Q8TCU6). Briefly: affinity purification with mass spectrometry; 10 μg purified EE-P-Rex1 immobilised on EE antibody coupled to protein G-Sepharose, incubated 2 h at 4 °C with anion exchange fractions of P-Rex1-/- mouse brain cytosol adjusted to 150 mM NaCl; control EE-antibody beads alone; bands cut from silver-stained SDS-PAGE gels, LC/MS; only the target purified.

For the molecule “STXB1 from P-Rex1-/- mouse brain cytosol (from UniProt O08599 1-594)”, the binding entry is “binds”.

On to “C1TC from P-Rex1-/- mouse brain cytosol (from UniProt Q922D8 1-935)”, for which the binding result is “binds”.

B1: Norbin (Neurochondrin, NCDN) from P-Rex1-/- mouse brain cytosol (protein, UniProt Q9Z0E0 1-729)
chain: MSCCDLAAAGQLGKAGIMASDCEPALNQAESRNPTLERYLGALREAKNDSEQFAALLLVTKAVKAGDIDAKTRRRIFDAVGFTFPNRLLTTKEAPDGCPDHVLRALGVALLACFCSDPELASHPQVLNKIPILSTFLTARGDPDDAARRSMIDDTYQCLTAVAGTPRGPRHLIAGGTVSALCQAYLGHGYGFDQALALLVGLLAAAETQCWKEAEPDLLAVLRGLSEDFQRAEDASKFELCQLLPLFLPPTTVPPECHRDLQAGLARILGSKLSSWQRNPALKLAARLAHACGSDWIPVGSSGSKFLALLVNLACVEVRLALEETGTEVKEDVVTACYALMELGIQECTRCEQSLLKEPQKVQLVSIMKEAIGAVIHYLLQVGPEKQKEPFVFASVRILGAWLAEETSSLRKEVCQLLPFLVRYAKTLYEEAEEASDISQQVANLAISPTTPGPSWPGDALRLLLPGWCHLTVEDGPREILIKEGAPSLLCKYFLQQWELTSPGHDTSVLPDSVEIGLQTCCHIFLNLVVTAPGLIKRDACFTSLMNTLMTSLPSLVQQQGRLLLAANVATLGLLMARLLSTSPALQGTPASRGFFAAAILFLSQSHVARATPGSDQAVLALSPDYEGIWADLQELWFLGMQAFTGCVPLLPWLAPAALRSRWPQELLQLLGSVSPNSVKPEMVAAYQGVLVELARANRLCREAMRLQAGEETASHYRMAALEQCLSEP
B1: the binding entry is reported as “binds”.

The values above are taken from publication PMC4813545.
